These are yes or no findings as the source states them, for the method shown. Binding seen in cells or lysates may run through a third protein. A result given as binding can be weak or reduced; the word gives no strength. Tags and fused reporters may be left off the sequences shown.
Biological target: T1, YFP-EML4 full length (human) (UniProt Q9HC35)
T1 sequence: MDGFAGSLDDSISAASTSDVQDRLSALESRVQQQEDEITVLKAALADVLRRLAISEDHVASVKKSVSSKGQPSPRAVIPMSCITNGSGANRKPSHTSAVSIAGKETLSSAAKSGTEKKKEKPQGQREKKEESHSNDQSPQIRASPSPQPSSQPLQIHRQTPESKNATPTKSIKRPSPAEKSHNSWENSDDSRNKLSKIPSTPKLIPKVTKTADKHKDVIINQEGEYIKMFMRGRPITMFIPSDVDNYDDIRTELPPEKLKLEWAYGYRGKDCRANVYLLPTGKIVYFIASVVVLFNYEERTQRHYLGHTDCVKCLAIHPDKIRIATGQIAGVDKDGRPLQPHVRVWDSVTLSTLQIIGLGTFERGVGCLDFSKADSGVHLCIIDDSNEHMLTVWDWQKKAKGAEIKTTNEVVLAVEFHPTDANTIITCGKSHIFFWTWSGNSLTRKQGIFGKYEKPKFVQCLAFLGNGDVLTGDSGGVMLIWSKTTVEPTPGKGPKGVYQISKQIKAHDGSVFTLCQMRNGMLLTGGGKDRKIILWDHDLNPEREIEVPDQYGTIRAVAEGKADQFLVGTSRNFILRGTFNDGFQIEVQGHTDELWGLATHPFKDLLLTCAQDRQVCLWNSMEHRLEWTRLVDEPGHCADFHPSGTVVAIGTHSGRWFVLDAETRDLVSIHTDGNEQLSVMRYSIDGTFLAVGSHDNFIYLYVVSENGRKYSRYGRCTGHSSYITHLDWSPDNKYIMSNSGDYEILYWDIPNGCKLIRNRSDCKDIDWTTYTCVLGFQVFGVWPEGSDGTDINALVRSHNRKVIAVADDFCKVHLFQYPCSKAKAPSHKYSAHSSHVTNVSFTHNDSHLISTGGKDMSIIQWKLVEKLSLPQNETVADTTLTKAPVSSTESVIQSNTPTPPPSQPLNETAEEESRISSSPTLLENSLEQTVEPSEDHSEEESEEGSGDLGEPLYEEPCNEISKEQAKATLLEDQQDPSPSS
Assay: co-IP

The chains behind the UniProt entries cited, without tags or fusion partners. Where a name states a change or a piece, a line headed by the entry shows the natural chain unless it says otherwise.
UniProt Q8TD19: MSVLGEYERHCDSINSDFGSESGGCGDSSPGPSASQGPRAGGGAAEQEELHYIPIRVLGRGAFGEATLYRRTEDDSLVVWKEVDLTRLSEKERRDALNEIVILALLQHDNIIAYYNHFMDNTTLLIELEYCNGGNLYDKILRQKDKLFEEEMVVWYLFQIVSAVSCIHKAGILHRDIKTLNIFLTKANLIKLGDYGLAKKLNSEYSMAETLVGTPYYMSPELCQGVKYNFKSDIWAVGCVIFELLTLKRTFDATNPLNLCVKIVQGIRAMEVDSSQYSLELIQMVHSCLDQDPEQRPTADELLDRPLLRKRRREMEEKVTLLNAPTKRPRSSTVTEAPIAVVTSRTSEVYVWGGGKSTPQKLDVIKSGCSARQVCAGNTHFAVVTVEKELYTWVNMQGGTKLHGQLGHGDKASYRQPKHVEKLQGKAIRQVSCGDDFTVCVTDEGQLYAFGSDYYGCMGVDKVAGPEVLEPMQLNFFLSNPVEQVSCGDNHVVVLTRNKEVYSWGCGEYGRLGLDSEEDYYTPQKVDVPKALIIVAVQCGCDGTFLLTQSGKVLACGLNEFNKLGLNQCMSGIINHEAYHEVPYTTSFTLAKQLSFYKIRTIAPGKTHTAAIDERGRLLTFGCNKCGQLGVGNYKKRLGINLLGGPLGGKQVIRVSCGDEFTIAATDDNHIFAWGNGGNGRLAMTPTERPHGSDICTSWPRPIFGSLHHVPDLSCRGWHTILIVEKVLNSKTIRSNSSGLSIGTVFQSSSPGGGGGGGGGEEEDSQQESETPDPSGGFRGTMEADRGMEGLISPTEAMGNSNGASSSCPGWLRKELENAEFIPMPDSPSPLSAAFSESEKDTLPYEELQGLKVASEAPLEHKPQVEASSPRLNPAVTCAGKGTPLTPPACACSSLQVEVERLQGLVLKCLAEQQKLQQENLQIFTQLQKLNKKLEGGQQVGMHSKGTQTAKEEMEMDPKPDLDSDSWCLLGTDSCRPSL

myc-NEK9-ΔRCC1, constitutively-activated mutant lacking the RCC1-like domain (from UniProt Q8TD19)
binding: binds

Reference: paper doi:10.1101/567305
